Experimental data from patent publication US12617757B2, “Compounds and modules for inhibition of pre-miR-21 and their use in treatment of certain cancers” (University of Florida Research Foundation, Incorporated, priority 2019, dated 2026).

tested on: miRNAs in MDA-MB-231; test: RT-qPCR miRNA profiling in MDA-MB-231 cells, Gini coefficient; format: cell-based, human; settings: 1 10 μM, 2 1 μM, 5 0.05 μM

| Structure (SMILES) | Gini coefficient (GC), all miRNAs measured | Gini coefficient (GC), miRNA isoforms with the same A and U bulge as miR-21 |
| --- | --- | --- |
| CCCN(CC(=O)N(CCC)CC(=O)N(CCC)CC(=O)N(CC(N)=O)Cc1cn(CCCNC(=O)CCCOc2ccc(-c3nc4cc(-c5ccc(N6CCN(C)CC6)cc5)ccc4[nH]3)cc2)nn1)C(=O)CNCc1cn(CCCNC(=O)CCCOc2ccc(-c3nc4cc(-c5ccc(N6CCN(C)CC6)cc5)ccc4[nH]3)cc2)nn1 [Compound 2] | 0.68 | 0.65 |
| CCCN(CC(=O)N(CCC)CC(=O)N(CCC)CC(=O)N(CC(=O)NCCOCCOCCOCCOc1ccc(C=C2SC(Nc3ccccc3)=C(C(=O)OCC)C2=O)cc1O)Cc1cn(CCCNC(=O)CCCOc2ccc(-c3nc4cc(-c5ccc(N6CCN(C)CC6)cc5)ccc4[nH]3)cc2)nn1)C(=O)CN(Cc1cn(CCCNC(=O)CCCOc2ccc(-c3nc4cc(-c5ccc(N6CCN(C)CC6)cc5)ccc4[nH]3)cc2)nn1)C(C)=O [Compound 5] | 0.84 | 0.78 |
| CN1CCN(c2ccc(-c3ccc4[nH]c(-c5ccc(OCCCC(=O)NCCCN=[N+]=[N-])cc5)nc4c3)cc2)CC1 [Compound 1] | 0.52 | 0.31 |
